Laboratory results as given in patent US20130317054A1, “NEURONAL NICOTINIC AGONIST AND METHODS OF USE” (ABBVIE INC., priority 2012, published 2013).

Tested on: clinically stable subjects with schizophrenia
Assay: Phase 2a Clinical Study A: disposition of subjects and tolerability
Type: in vivo, human
Settings: 25 mg group; lowest completion rate
From the text: A Phase 2a proof-of-concept (POC) study in clinically stable subjects with schizophrenia who were clinically stable and received stable doses of atypical antipsychotic therapy. The study was a Phase 2, multi-center, randomized, double-blind, placebo-controlled, parallel group study designed to evaluate the safety and efficacy of doses of (4s)-4-(5-phenyl-1,3,4-thiadiazol-2-yloxy)-1-azatricyclo[3.3.1.1^3,7]decane (Compound A) in clinically stable male and female subjects (ages 20 to 55, inclusive) with a Diagnostic and Statistical Manual of Mental Disorders—Fourth Edition, Text Revision (DSM-IV-TR) diagnosis of schizophrenia. Psychiatric diagnoses were confirmed using the Mini-International Neuropsychiatric Interview (MINI) version 6.0.0. The criteria for clinical stability was determined by a combination of retrospective data (over the 4 months prior to the start of Screening, which will be supported by clinical records, patient, identified responsible contact person, and physician interviews), and prospective data assessed during the Prospective Stabilization Period of 28 to 42 days duration. […]

SMILES: c1ccc(-c2nnc(O[C@@H]3C4CC5C[C@H]3C[N@](C5)C4)s2)cc1 [Compound A, (4s)-4-(5-phenyl-1,3,4-thiadiazol-2-yloxy)-1-azatricyclo[3.3.1.1^3,7]decane]
- completion rate: 73.1%
